PubChem BioAssay AID1259259, Sanger Institute | 2017
Assay: 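Synthetic lethal kinase partners of anchor drugs in colorectal cancer cells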 (primary screen). Cells: SW1463 human colorectal cancer cells. Reagents: siRNA pool against human genes. Challenge: DMSO vehicle, or one anchor drug: BYL719 at 1 µM, cetuximab at 5 µg/ml, or trametinib at 10 nM. Detection: 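Viability relative to control pool 2 (non-targeting) averaged over replicates, robust z-score for knock-down with no drug, and for each anchor drug the mean synergy score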. Direction: robust z-score, knock-down alone: higher = more viable cells after knock-down. Active means: 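a robust z-score under -3 for knock-down with no drug marks the gene as essential, meaning viability loss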. Calls: active = essential: viability loss from knock-down alone; inactive = no change from knock-down alone.
The deposit covers 794 reagents; below is a random part of them. In the full data, 9 (1.1%) were called active. 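Calls rest on knock-down alone, not drug synergy; viability values seem capped at 1.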 Entries without a mark were called inactive. Further read-outs or replicates are left out here. Reagent sequences are not shown. Not stated in the record: the amount of reagent, the time to read-out.

After knock-down of AK5, the screen gave robust z-score, knock-down alone -1.17.
After knock-down of PRPS2, the record shows robust z-score, knock-down alone -0.405.
For MED24, the entry reads robust z-score, knock-down alone 0.733.
Against PIP4K2B, the entry reads robust z-score, knock-down alone 0.317.
For FBXW7, the values are robust z-score, knock-down alone 0.119.
With knock-down of MERTK, the screen gave robust z-score, knock-down alone -0.521.
With knock-down of TWF2, the record shows robust z-score, knock-down alone -1.17.
After knock-down of EEF2K, the screen gave robust z-score, knock-down alone -1.8.
With knock-down of ADK the results were robust z-score, knock-down alone -1.88.
Against CDK16, the entry reads robust z-score, knock-down alone 0.432.
With knock-down of SMC1A, the screen gave robust z-score, knock-down alone -0.614.
After knock-down of MAGI3, the screen gave robust z-score, knock-down alone 1.13.
For CDC42BPB, the values are robust z-score, knock-down alone -0.899.

4 of these entries, set out differently:
{"gene":"PRPS2","robust z-score, knock-down alone":-0.405}
{"gene":"MED24","robust z-score, knock-down alone":0.733}
{"gene":"PIP4K2B","robust z-score, knock-down alone":0.317}
{"gene":"FBXW7","robust z-score, knock-down alone":0.119}

Additional reagents follow:
With knock-down of SPHK1, the record shows robust z-score, knock-down alone 1.13.
Knock-down of VRK2 gave: robust z-score, knock-down alone -1.57.
Against CSNK1E, the values are robust z-score, knock-down alone -0.464.
Knock-down of DIS3 resulted in: robust z-score, knock-down alone 1.13.
GALK1 gave robust z-score, knock-down alone -2.31.
For PKM the deposit lists robust z-score, knock-down alone 1.13.
For GNAS, the entry reads robust z-score, knock-down alone -2.15.
For TTK, the entry reads robust z-score, knock-down alone 0.776.
For CDK18 the deposit lists robust z-score, knock-down alone -0.278.
Against SOX9, the values are robust z-score, knock-down alone 0.204.
After knock-down of MAPK11 the results were robust z-score, knock-down alone 1.03.
Against CKMT1B the deposit lists robust z-score, knock-down alone -2.57.
PPP2R1A gave robust z-score, knock-down alone 1.13.
Depletion of BUB1B came out at: robust z-score, knock-down alone 1.13.
After knock-down of ROR1 the results were robust z-score, knock-down alone 1.11.
After knock-down of CLK4, the record shows robust z-score, knock-down alone 1.04.
Silencing of CAD came out at: robust z-score, knock-down alone 1.13.
Against PEAK1 the deposit lists robust z-score, knock-down alone -0.981.
For MAP3K20, the entry reads robust z-score, knock-down alone 0.39.
Depletion of GTF2H1 gave: robust z-score, knock-down alone -0.183.
GRK1 scored robust z-score, knock-down alone -0.612.
With knock-down of SLK the results were robust z-score, knock-down alone 1.13.
Silencing of PHKA1 came out at: robust z-score, knock-down alone 0.026.
